# From the supplement of paper PMC10689618
# Structures can show the parent of a compound that is named as a salt. The list shows a part of the results. Repeats are few or missing, and single values can be far off.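 Primary human fetal astrocytes engulfed labelled rat cortical synaptosomes, measured as a red/green ratio corrected for calcein live-cell signal and scaled to the plate median. Toxicity meant calcein falling over 30%; decreased phagocytosis meant below 70% of median above 5 µM.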
# Assays:
# Human fetal astrocytes [1] = assay: loss of total cells relative to no-compound high-control median (toxicity); higher = more toxic (fewer cells); settings: 24 h
# Human fetal astrocytes [2] = assay: synaptosome phagocytosis (pHrodo/calcein intensity ratio) relative to plate median of data wells; higher = more phagocytosis; settings: 24 h
Compound,loss of total cells (Human fetal astrocytes [1]; 1.39 µM),loss of total cells (Human fetal astrocytes [1]; 2.78 µM),loss of total cells (Human fetal astrocytes [1]; 5.56 µM),loss of total cells (Human fetal astrocytes [1]; 11.11 µM),loss of total cells (Human fetal astrocytes [1]; 22.22 µM),synaptosome phagocytosis (Human fetal astrocytes [2]; 1.39 µM),synaptosome phagocytosis (Human fetal astrocytes [2]; 2.78 µM),synaptosome phagocytosis (Human fetal astrocytes [2]; 5.56 µM),synaptosome phagocytosis (Human fetal astrocytes [2]; 11.11 µM),synaptosome phagocytosis (Human fetal astrocytes [2]; 22.22 µM)
CC1=C(C(=O)O)N2C(=O)[C@@H](NC(=O)[C@H](N)c3ccc(O)cc3)[C@H]2SC1,-29%,-0.9%,-9.3%,-16.4%,-5.1%,84.9%,97.5%,95.6%,129%,127%
C[C@]12C=CC(=O)C=C1CC[C@@H]1[C@@H]2[C@@H](O)C[C@@]2(C)[C@H]1CC[C@]2(O)C(=O)CO,-1.5%,-11.9%,-18.8%,1.4%,23.4%,121%,98.8%,88.2%,128%,112%
CCOC(=O)[C@@](C)(N)Cc1ccc(O)c(O)c1,-19.9%,-4%,-11.7%,6.3%,24.4%,99.4%,109%,81%,53.6%,31.3%
CC1=CC(=O)C2=C(C)CC[C@@H]3[C@H](OC(=O)[C@H]3C)[C@@H]12,-8.2%,-13.4%,0.7%,16.9%,19.3%,93.3%,106%,109%,93.5%,121%
CC(N)CCCC(C)(C)O (stereo not given),11.2%,11.2%,9.4%,5.4%,22%,77.4%,127%,152%,119%,119%
CC(=O)OCC(=O)[C@@]1(O)[C@H](OC(C)=O)C[C@H]2[C@@H]3CCC4=CC(=O)C=C[C@]4(C)[C@@]3(F)[C@@H](O)C[C@@]21C,-5.6%,-34.2%,-23%,-32%,17.9%,103%,134%,116%,110%,131%
COc1cc(C)c2c(c1C=O)Oc1c(c(C)c(O)c3c1C(O)OC3=O)OC2=O (stereo not given),-10.5%,7.3%,27.5%,29%,-4.8%,107%,97.8%,109%,114%,118%
OC(c1cc(C(F)(F)F)nc2c(C(F)(F)F)cccc12)C1CCCCN1 (stereo not given),-28.2%,-34.9%,13%,16.7%,50.8%,100%,92.1%,81.2%,59.9%,31.8%
CCCCCCNC(=O)n1cc(F)c(=O)[nH]c1=O,7.6%,11.9%,15.2%,14.6%,0%,83.3%,112%,138%,130%,102%
C=C1CC[C@@H]2[C@](C)(CO)[C@H](O)CC[C@@]2(C)[C@@H]1C/C=C1/C(=O)OC[C@H]1O,-29.5%,6.9%,-14.7%,10.1%,1.5%,112%,111%,114%,113%,84.6%
CCCCCCCCCCCCCCC(C(=O)O)C(O)(CC(=O)OC)C(=O)O (stereo not given),36.6%,6.6%,-10.7%,46.5%,21.1%,137%,112%,91%,118%,110%
CN(C)CCOc1ccc(/C(=C(/CCCl)c2ccccc2)c2ccccc2)cc1,-16.9%,27.8%,19.3%,46.2%,13.4%,79.8%,70%,95.7%,128%,112%
CN(C)CCOC(c1ccc(Cl)cc1)c1ccccn1 (stereo not given),-21.6%,-10.7%,-8.1%,-38.3%,6.2%,103%,109%,85%,99.9%,89.3%
NC12CC3CC(CC(C3)C1)C2 [Amantadine hydrochloride],-5.8%,-13.1%,5.7%,-12.5%,21.5%,106%,117%,104%,116%,84.8%
CCN(CC)CCNC(=O)c1ccc(NC(C)=O)cc1 [N-Acetylprocainamide hydrochloride],-7.6%,4.7%,29%,36.8%,-22.6%,106%,90.9%,144%,81.6%,106%
CC(C)[N+]1(C)[C@@H]2CC[C@H]1C[C@@H](OC(=O)C(CO)c1ccccc1)C2 (stereo not given in full),14.5%,-17.3%,-1.4%,2.6%,-7.6%,102%,105%,97.4%,86.8%,90%
OCCOCCN1CCN(C2=Nc3ccccc3Sc3ccccc32)CC1,-37.1%,-40.5%,-5.6%,-2.3%,-6.5%,107%,91.9%,87.1%,106%,89.9%
Nc1ccc(S(N)(=O)=O)cc1,-2.7%,-11.9%,-18.8%,-1.4%,14.3%,122%,100%,131%,115%,104%
C[C@]12CCC3c4ccc(OS(=O)(=O)O)cc4CCC3C1CC[C@H]2O (stereo not given in full),19.1%,18.4%,15.9%,-8.8%,2.3%,93.6%,130%,125%,120%,108%
Nc1ccc(C(=O)O)c(O)c1,-39.8%,-4.6%,-2.1%,-14.1%,-3.4%,96.7%,89.5%,103%,91%,141%
NCC(=O)CCC(=O)O,-15.8%,-20.4%,14.1%,-21.1%,15.3%,95.7%,83.1%,89.6%,120%,93.9%

# Record cards, as listed above. Values in the order: loss of total cells (Human fetal astrocytes [1]; 1.39 µM)	loss of total cells (Human fetal astrocytes [1]; 2.78 µM)	loss of total cells (Human fetal astrocytes [1]; 5.56 µM)	loss of total cells (Human fetal astrocytes [1]; 11.11 µM)	loss of total cells (Human fetal astrocytes [1]; 22.22 µM)	synaptosome phagocytosis (Human fetal astrocytes [2]; 1.39 µM)	synaptosome phagocytosis (Human fetal astrocytes [2]; 2.78 µM)	synaptosome phagocytosis (Human fetal astrocytes [2]; 5.56 µM)	synaptosome phagocytosis (Human fetal astrocytes [2]; 11.11 µM)	synaptosome phagocytosis (Human fetal astrocytes [2]; 22.22 µM)
# CC(=O)OCC(=O)[C@@]1(O)[C@H](OC(C)=O)C[C@H]2[C@@H]3CCC4=CC(=O)C=C[C@]4(C)[C@@]3(F)[C@@H](O)C[C@@]21C reads -5.6%	-34.2%	-23%	-32%	17.9%	103%	134%	116%	110%	131%
# CCOC(=O)[C@@](C)(N)Cc1ccc(O)c(O)c1 reads -19.9%	-4%	-11.7%	6.3%	24.4%	99.4%	109%	81%	53.6%	31.3%
# CCN(CC)CCNC(=O)c1ccc(NC(C)=O)cc1 [N-Acetylprocainamide hydrochloride] reads -7.6%	4.7%	29%	36.8%	-22.6%	106%	90.9%	144%	81.6%	106%

# Additional records:

Compound,loss of total cells (Human fetal astrocytes [1]; 1.39 µM),loss of total cells (Human fetal astrocytes [1]; 2.78 µM),loss of total cells (Human fetal astrocytes [1]; 5.56 µM),loss of total cells (Human fetal astrocytes [1]; 11.11 µM),loss of total cells (Human fetal astrocytes [1]; 22.22 µM),synaptosome phagocytosis (Human fetal astrocytes [2]; 1.39 µM),synaptosome phagocytosis (Human fetal astrocytes [2]; 2.78 µM),synaptosome phagocytosis (Human fetal astrocytes [2]; 5.56 µM),synaptosome phagocytosis (Human fetal astrocytes [2]; 11.11 µM),synaptosome phagocytosis (Human fetal astrocytes [2]; 22.22 µM)
Cc1coc2c1C(=O)C(=O)c1c-2ccc2c1CCCC2(C)C,-7.4%,4.7%,15.4%,0.7%,15.6%,103%,107%,131%,60%,135%
CN[C@@H]1[C@@H](O[C@H]2O[C@H](CO)[C@@H](N)[C@H](O)[C@H]2O)OC2C[C@@H](N)[C@@H](O[C@H]3[C@H](O)[C@@H](O)[C@H](N)C[C@@H]3N)OC2[C@@H]1O (stereo not given in full),-40.3%,-22.2%,-0.6%,43.6%,8.4%,125%,120%,99.3%,129%,121%
O=C1C(O)=C(O)C(=O)C(O)=C1O,-5.6%,-25.4%,4.3%,-14.8%,1.6%,102%,93.6%,130%,69.2%,102%
CCOC(=O)c1ccc(N)cc1,-10.8%,11.3%,5.7%,-12.5%,-15.3%,117%,105%,93.9%,102%,87.1%
O=C(O)CS,-15.6%,-6.9%,8.1%,18.9%,3%,128%,71.3%,139%,108%,100%
NS(=O)(=O)c1cc2c(cc1C(F)(F)F)NC(Cc1ccccc1)NS2(=O)=O (stereo not given),-33.1%,-20.6%,12.4%,38.4%,11.5%,105%,112%,130%,162%,122%
COc1cc2c(cc1OC)Cc1cc(OC)c(OC)cc1Cc1cc(OC)c(OC)cc1C2,-20.5%,14.1%,2.2%,2.7%,15.6%,114%,137%,126%,102%,122%
CN1C(C(=O)Nc2ccccn2)=C(O)c2sccc2S1(=O)=O,-33.9%,11.1%,8.1%,41%,14%,106%,128%,97.5%,138%,93.1%
C[C@@]12C[C@@]3(O)O[C@@H](O1)[C@]1(COC(=O)c4ccccc4)[C@H]3C[C@@]12O[C@@H]1O[C@H](CO)[C@@H](O)[C@H](O)[C@H]1O,-11.5%,-1.8%,-18.3%,14.2%,4.4%,88.5%,104%,71.1%,120%,119%
CC(C)CC(NC(=O)OCC1c2ccccc2-c2ccccc21)C(=O)O (stereo in doubt),5.4%,13.4%,18.8%,15.5%,-1.5%,127%,122%,124%,134%,97.5%
CC(=O)O[C@]1(C)CC[C@@]23C[C@H]1C(C)(C)[C@@H]2CC[C@H]3C,-32.8%,1.8%,-14.7%,8.8%,-4.4%,97.1%,84.5%,126%,135%,115%
CC1(C)O[C@@H]2C[C@H]3[C@@H]4C[C@H](F)C5=CC(=O)C=C[C@]5(C)[C@@]4(F)[C@@H](O)C[C@]3(C)[C@]2(C(=O)CO)O1,-5.6%,-39%,-7%,6.1%,4.6%,112%,72.6%,108%,132%,133%
CC(C)(Sc1cc(C(C)(C)C)c(O)c(C(C)(C)C)c1)Sc1cc(C(C)(C)C)c(O)c(C(C)(C)C)c1,-15.8%,-13.1%,-3.9%,-20.3%,14.7%,107%,78.8%,108%,108%,103%
N[C@@H](C(=O)N[C@@H]1C(=O)N2C(C(=O)O)=C(Cl)CS[C@H]12)c1ccccc1,-9.2%,-3.7%,-4.2%,-8.4%,0.3%,133%,150%,112%,89.9%,99.8%
CC(=O)O[C@@H]1C[C@H]2C(C)(C)C(=O)C=C[C@]2(C)[C@H]2CC[C@@]3(C)[C@H](c4ccoc4)OC(=O)[C@H]4O[C@]43[C@@]21C,26.4%,14.8%,12.3%,7.1%,2.3%,87.1%,144%,92.4%,68.4%,84%
O=C1CN(/N=C/c2ccc([N+](=O)[O-])o2)C(=O)N1,-10.8%,-9.5%,9.3%,7.8%,14.2%,91.1%,99.8%,96.4%,130%,84.2%
CCCCCCCCCCCCCCCC(=O)O[C@@H]1[C@@H](O)[C@@H](O)[C@@H]([C@H](NC(=O)[C@@H]2C[C@@H](CCC)CN2C)[C@H](C)Cl)O[C@@H]1SC,-45.2%,-34.1%,-5.6%,-16.7%,-9.7%,82.2%,112%,115%,68.2%,118%
Clc1ccccc1C(c1ccccc1)(c1ccccc1)n1ccnc1 [Clotrimazole],3.3%,-7.1%,0.7%,-2.6%,12.5%,118%,82.7%,102%,70.1%,70%
CC(=O)O[C@H]1CC[C@]2(C)[C@H]3CC[C@@]4(C)[C@H](c5ccoc5)OC(=O)[C@H]5O[C@]54[C@]3(C)[C@H](OC(C)=O)C[C@H]2C1(C)C [3beta-ACETOXYDEOXODIHYDROGEDUNIN],-6.9%,13.3%,0%,34.2%,4.1%,109%,110%,80.8%,83.5%,128%
COc1ccc(C(=O)c2ccccc2O)c(O)c1,-2.1%,-15.9%,-7%,0.9%,-26.4%,108%,99%,123%,71.8%,90.8%
CN1CC(=O)N2[C@H](c3ccc4c(c3)OCO4)c3[nH]c4ccccc4c3C[C@@H]2C1=O,-36.3%,-4.8%,-5.6%,10.8%,0.3%,72.6%,81%,90.1%,115%,75.7%
